These are yes or no findings as the source states them, for the method shown. Some binding calls cover weakened binding; strength is not graded here.
Tests used:
[1] = target: human ENPP1 on the cell surface (293T-ENPP1 cells, HepG2 cells) (human) (UniProt P22413); assay: flow cytometry on 293T-ENPP1 cells, 100 nM IgG1, PE anti-human IgG
[2] = target: human ENPP1 on the cell surface (293T-ENPP1 cells, HepG2 cells) (human) (UniProt P22413); assay: flow cytometry, 100 nM antibody, PE goat anti-human IgG second step, 293T-ENPP1 and HepG2 cells
[3] = target: human ENPP1 on the cell surface (293T-ENPP1 cells, HepG2 cells) (human) (UniProt P22413); assay: flow cytometry on 293T-ENPP1 and HepG2 cells, APC anti-FLAG

Protein sequences, listed by entry. Tags and fused reporters are not part of them. Lines headed by an entry give the natural chain unless they say otherwise; changes in a name come on top.
UniProt P22413: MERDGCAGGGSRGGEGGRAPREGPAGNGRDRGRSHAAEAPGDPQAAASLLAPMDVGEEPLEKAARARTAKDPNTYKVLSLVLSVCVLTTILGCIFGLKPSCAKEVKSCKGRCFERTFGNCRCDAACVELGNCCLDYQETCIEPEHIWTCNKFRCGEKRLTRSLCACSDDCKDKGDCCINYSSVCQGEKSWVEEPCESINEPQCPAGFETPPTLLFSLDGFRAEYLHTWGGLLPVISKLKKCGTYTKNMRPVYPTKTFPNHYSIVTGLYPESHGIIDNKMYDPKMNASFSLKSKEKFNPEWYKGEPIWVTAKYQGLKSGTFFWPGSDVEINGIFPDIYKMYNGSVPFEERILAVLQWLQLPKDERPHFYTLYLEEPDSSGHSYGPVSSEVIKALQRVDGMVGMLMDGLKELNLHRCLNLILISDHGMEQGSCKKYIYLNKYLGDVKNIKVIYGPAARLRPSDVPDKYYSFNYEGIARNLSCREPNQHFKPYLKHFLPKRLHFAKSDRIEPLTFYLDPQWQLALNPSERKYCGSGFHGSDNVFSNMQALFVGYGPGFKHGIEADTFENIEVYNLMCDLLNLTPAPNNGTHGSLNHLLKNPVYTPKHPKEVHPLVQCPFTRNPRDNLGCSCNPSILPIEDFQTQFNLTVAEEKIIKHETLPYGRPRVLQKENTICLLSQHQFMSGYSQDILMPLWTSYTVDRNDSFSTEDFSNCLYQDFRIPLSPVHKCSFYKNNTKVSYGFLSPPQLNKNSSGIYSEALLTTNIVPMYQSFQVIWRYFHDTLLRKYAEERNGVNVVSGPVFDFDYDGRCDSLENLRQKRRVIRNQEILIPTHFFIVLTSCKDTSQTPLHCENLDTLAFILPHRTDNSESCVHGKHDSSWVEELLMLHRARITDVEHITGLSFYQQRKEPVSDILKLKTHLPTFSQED

Binder	binding [1]	binding [2]	binding [3]
IgG1 17 (antibody, V domains shown) VH: QVQLVESGGGLVKPGGSLRLSCAASGFTFSDYYMSWIRQAPGKGLEWVSYISSSGSTIYYADSVKGRFTISRDNAKNSLYLQMNSLRAEDTAVYYCAREVYYYDSSGYYTYYFDYWGQGTLVTVSS VL: DIQMTQSPSSLSASVGDRVTITCRASQSISSYLNWYQQKPGKAPKLLIYAASSLQSGVPSRFSGSGSGTDFTLTISSLQPEDAATYYCQQYDTFPLTFGGGTKVEIKR	binds	binds	
IgG1 3G12 (antibody, V domains shown) VH: QVQLVESGGGLVKPGGSLRLSCAASGFTFSDYYMSWIRQAPGKGLEWVSYISSSGSTIYYADSVKGRFTISRDNAKNSLYLQMNSLRAEDTAVYYCAREVYYYDSSGYYTYYFDYWGQGTLVTVSS VL: DIQMTQSPSSLSASVGDRVTITCRASQSISSYLNWYQQKPGKAPKLLIYAASSLQSGVPSRFSGSGSGTDFTLTISSLQPEDVAVYYCQQYYTSRITFGQGTKLEIKR	binds	binds	
scFv 17 (scFv, not shown: small tags and cut ends) scFv: DIQMTQSPSSLSASVGDRVTITCRASQSISSYLNWYQQKPGKAPKLLIYAASSLQSGVPSRFSGSGSGTDFTLTISSLQPEDAATYYCQQYDTFPLTFGGGTKVEIKGGGGSGGGGSGGGGSQVQLVESGGGLVKPGGSLRLSCAASGFTFSDYYMSWIRQAPGKGLEWVSYISSSGSTIYYADSVKGRFTISRDNAKNSLYLQMNSLRAEDTAVYYCAREVYYYDSSGYYTYYFDYWGQGTLVTVSS			binds
scFv 3G12 (scFv, not shown: small tags and cut ends) scFv: DIQMTQSPSSLSASVGDRVTITCRASQSISSYLNWYQQKPGKAPKLLIYAASSLQSGVPSRFSGSGSGTDFTLTISSLQPEDVAVYYCQQYYTSRITFGQGTKLEIKGGGGSGGGGSGGGGSQVQLVESGGGLVKPGGSLRLSCAASGFTFSDYYMSWIRQAPGKGLEWVSYISSSGSTIYYADSVKGRFTISRDNAKNSLYLQMNSLRAEDTAVYYCAREVYYYDSSGYYTYYFDYWGQGTLVTVSS			binds

From patent publication US20250177530A1, “MOLECULES THAT BIND TO ENPP1 POLYPEPTIDES” (UNIVERSITY OF PITTSBURGH - OF THE COMMONWEALTH SYSTEM OF …, priority 2022, published 2025)
